Measured values reported in patent US20050202535A1.
Results are given in words; binding and its absence hold for the method and conditions named. Some results given as binding are weak or reduced against the parent protein; the word gives no strength.

Chains of the proteins cited; added tags and fusions are not shown. Lines headed by an entry give the natural chain unless they say otherwise; changes in a name come on top. A line that says so, or that is headed by a name, gives the form on record, which may keep a tag or linker.
VegF (vascular endothelial growth factor; PeproTech), biotinylated (P15692, form named): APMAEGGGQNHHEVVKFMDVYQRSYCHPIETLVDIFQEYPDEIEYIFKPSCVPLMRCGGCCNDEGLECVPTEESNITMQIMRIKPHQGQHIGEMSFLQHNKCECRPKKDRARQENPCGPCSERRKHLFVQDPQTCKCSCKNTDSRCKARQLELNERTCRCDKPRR

Molecular target: VegF (vascular endothelial growth factor; PeproTech), biotinylated (UniProt P15692)
Experiment: ECL competition assay (BioVeris), competitor Anti-VegF antibody

binding | Binder
binds | 2BBIck81 (Bowman-Birk inhibitor with the VegF binding peptide CK37281 in the chymotrypsin inhibitory loop), free form released from the BCE103-lnk2-2BBIck81 … (designed binder) DDESSKPCCDQCACTKSNPPQCRCSDMRLNSCHSACKSCACYNLYGWTCFCVDITDFCYEPCKPSEDDKEN
binds | ACYNLYGWTC [synthesized CK37281 peptide (VegF binding peptide CK37281)]
binds | 1BBIck81 (Bowman-Birk inhibitor with the VegF binding peptide CK37281 in the trypsin inhibitory loop) (designed binder) DDESSKPCCDQCACYNLYGWTCRCSDMRLNSCHSACKSCICALSYPAQCFCVDITDFCYEPCKPSEDDKEN
